Test results reported in publication PMC3009664.
No constants are given. Whether binding was seen depends on the method and setting. In cells and extracts the contact can be indirect. Some results given as binding are weak or reduced against the parent protein; the word gives no strength.

By UniProt entry, the sequences of proteins in these tests, tags left out.
UniProt P41232: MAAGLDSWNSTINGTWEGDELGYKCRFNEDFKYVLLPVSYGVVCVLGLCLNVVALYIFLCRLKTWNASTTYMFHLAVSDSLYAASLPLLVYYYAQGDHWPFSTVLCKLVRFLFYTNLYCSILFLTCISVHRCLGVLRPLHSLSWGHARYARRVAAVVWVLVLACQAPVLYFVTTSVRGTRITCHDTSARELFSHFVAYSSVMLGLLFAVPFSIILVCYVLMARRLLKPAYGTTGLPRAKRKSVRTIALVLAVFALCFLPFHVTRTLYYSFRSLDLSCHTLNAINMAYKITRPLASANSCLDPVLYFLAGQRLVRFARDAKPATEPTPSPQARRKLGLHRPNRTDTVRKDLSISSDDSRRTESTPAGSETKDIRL

Molecular target: T1, adenosine A1 receptor (rat (endogenous in rat brain)) (UniProt P25099)
T1 sequence: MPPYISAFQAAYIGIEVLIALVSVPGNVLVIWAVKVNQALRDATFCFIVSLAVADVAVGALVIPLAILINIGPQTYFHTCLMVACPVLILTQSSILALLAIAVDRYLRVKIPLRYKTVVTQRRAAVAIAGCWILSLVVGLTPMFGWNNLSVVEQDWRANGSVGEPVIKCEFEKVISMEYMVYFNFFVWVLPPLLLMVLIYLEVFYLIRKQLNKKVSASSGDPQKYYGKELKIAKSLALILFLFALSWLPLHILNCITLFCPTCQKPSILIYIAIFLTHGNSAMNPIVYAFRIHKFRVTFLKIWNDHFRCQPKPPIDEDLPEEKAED
Assay: co-IP; membrane extracts of rat cerebral cortex, cerebellum and hippocampus (50 mM Tris-HCl pH 7.4, 1% Triton X-100, 300 mM NaCl, 4°C) immunoprecipitated with anti-A1R and Protein G-Sepharose; immunoblot with anti-P2Y2R

Which binding does the source give for “P2Y2 purinergic receptor (from UniProt P41232 1-374)” here?
The binding was “binds”.
